Measurements as given in the supplement of paper PMC4604168 (melanoma cell lines).
Some of the results follow. Repeats are few or missing, and single values can be far off.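 Cells were imaged in 1,536-well plates, and nuclei stained with an antibody against cleaved PARP were counted against all DNA-stained nuclei to give the apoptosis fraction. Screening doses were chosen to leave most cells alive, and resting and induced cleaved-PARP levels differ strongly between cell lines.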

Columns and labels:
Assay in all cases: cleaved PARP positive nuclei fraction relative to DMSO control; melanoma cells; higher = more apoptosis
Conditions in all cases: library dose: low library concentration; 72 h
MZ2-MEL = system: MZ2-MEL
MeWo = system: MeWo
RPMI7951 = system: RPMI7951
RVH-421 = system: RVH-421
SkMel28 = system: SkMel28
SkMel2 = system: SkMel2
SkMel30 = system: SkMel30
SkMel5 = system: SkMel5
UACC257 = system: UACC257
UACC62 = system: UACC62
WM115 = system: WM115
WM1716 = system: WM1716
WM1745 = system: WM1745
WM3526 = system: WM3526
WM3619 = system: WM3619
WM451Lu = system: WM451Lu

| Structure (SMILES) | cleaved PARP positive nuclei fraction (MZ2-MEL) [%] | cleaved PARP positive nuclei fraction (MeWo) [%] | cleaved PARP positive nuclei fraction (RPMI7951) [%] | cleaved PARP positive nuclei fraction (RVH-421) [%] | cleaved PARP positive nuclei fraction (SkMel28) [%] | cleaved PARP positive nuclei fraction (SkMel2) [%] | cleaved PARP positive nuclei fraction (SkMel30) [%] | cleaved PARP positive nuclei fraction (SkMel5) [%] | cleaved PARP positive nuclei fraction (UACC257) [%] | cleaved PARP positive nuclei fraction (UACC62) [%] | cleaved PARP positive nuclei fraction (WM115) [%] | cleaved PARP positive nuclei fraction (WM1716) [%] | cleaved PARP positive nuclei fraction (WM1745) [%] | cleaved PARP positive nuclei fraction (WM3526) [%] | cleaved PARP positive nuclei fraction (WM3619) [%] | cleaved PARP positive nuclei fraction (WM451Lu) [%] |
| --- | --- | --- | --- | --- | --- | --- | --- | --- | --- | --- | --- | --- | --- | --- | --- | --- |
| CS(=O)(=O)c1ccc(C(=O)Nc2ccc(Cl)c(-c3ccccn3)c2)c(Cl)c1 [vismodegib] + COc1cc2c(Oc3ccc4[nH]c(C)cc4c3F)ncnc2cc1OCCCN1CCCC1 [cediranib] (first compound 1 µM, partner dose 0.4 µM) | 38 | 93 | 52.2 | 54.9 | 40 | 122 | 290 | 137 | 79.8 | 103 | 43.7 | 93.4 | 96.5 | 88.9 | 80.9 | 136 |
| CS(=O)(=O)c1ccc(C(=O)Nc2ccc(Cl)c(-c3ccccn3)c2)c(Cl)c1 [vismodegib] + COc1cc(N2CCC(N3CCN(C)CC3)CC2)ccc1Nc1ncc(Cl)c(Nc2ccccc2S(=O)(=O)C(C)C)n1 [NVP-TAE684] (first compound 1 µM, partner dose 0.08 µM) | 137 | 347 | 111 | 154 | 230 | 152 | 24.9 | 84 | 495 | 139 | 332 | 377 | 104 | 69.5 | 93.9 | 160 |
| CCN(CC)CCNC(=O)c1c(C)[nH]c(/C=C2\C(=O)Nc3ccc(F)cc32)c1C [sunitinib] + CC(C)(C)c1cnc(CSc2cnc(NC(=O)C3CCNCC3)s2)o1 [SNS-032] (first compound 0.4 µM, partner dose 0.01 µM) | 132 | 81.2 | 120 | 108 | 67.2 | 151 | 90.2 | 181 | 241 | 339 | 160 | 70.5 | 129 | 32.7 | 106 | 156 |
| CC1(C)CCC(c2ccc(Cl)cc2)=C(CN2CCN(c3ccc(C(=O)NS(=O)(=O)c4ccc(N[C@H](CCN5CCOCC5)CSc5ccccc5)c(S(=O)(=O)C(F)(F)F)c4)cc3)CC2)C1 + Oc1cc(-c2nc(-c3ccccc3)[nH]c2-c2ccncc2)ccc1Cl [L779450] (first compound 0.4 µM, partner dose 0.2 µM) | 304 | 213 | 251 | 405 | 348 | 157 | 96.9 | 126 | 160 | 222 | 326 | 71.1 | 794 | 67.2 | 94.8 | 70.8 |
| CC(=O)O[C@@]12CO[C@@H]1C[C@H](O)[C@@]1(C)C(=O)[C@H](O)C3=C(C)[C@@H](OC(=O)[C@H](O)[C@@H](NC(=O)OC(C)(C)C)c4ccccc4)C[C@@](O)([C@@H](OC(=O)c4ccccc4)[C@H]21)C3(C)C [Docetaxel] + O=S(=O)(c1ccccc1)N(CC(F)(F)F)c1ccc(C(O)(C(F)(F)F)C(F)(F)F)cc1 [T0901317] (first compound 0.0001 µM, partner dose 1.4 µM) | 606 | 767 | 141 | 104 | 669 | 475 | 201 | 101 | 672 | 416 | 573 | 150 | 186 | 450 | 138 | 131 |
| C[C@]1(O)C[C@@H](c2nc(-c3ccc4ccc(-c5ccccc5)nc4c3)c3c(N)nccn32)C1 + COC(=O)c1sccc1S(=O)(=O)Nc1ccc(Nc2ccccc2)cc1OC [GSK0660] (first compound 0.4 µM, partner dose 1 µM) | 91.8 | 66.9 | 103 | 181 | 22.7 | 23.4 | 47.5 | 87.7 | 56.5 | 77.7 | 122 | 32.4 | 103 | 170 | 104 | 71.2 |
| NC1(c2ccc(-c3nc4ccn5c(=O)[nH]nc5c4cc3-c3ccccc3)cc2)CCC1 + CN(C)S(=O)(=O)c1ccc2c(c1)/C(=C/c1cc3c([nH]1)CCCC3)C(=O)N2 [SU6656] (first compound 0.4 µM, partner dose 0.4 µM) | 78.9 | 61.8 | 101 | 116 | 96.9 | 99.9 | 82 | 197 | 58.4 | 93.4 | 370 | 124 | 111 | 75.9 | 98.6 | 27.6 |
